Assay results published in patent US20230158057A1, “COMPOSITIONS AND METHODS FOR THE TREATMENT OF PAIN” (Duke University, priority 2020, published 2023).
For part of these data: For at least one compound, name, drawing or mass did not settle the structure. Some of these results come from one statement about several compounds together.

What was measured:
[1] = test system: naïve mice; experiment: Von Frey testing of mechanical thresholds in naïve mice (WT and knockout); assay type: in vivo, mouse; conditions: systemic administration
Method: Reflexive-based sensory testing in mice: All behavioral testing in mice was performed in a specialized humidity- and light-controlled mouse behavior facility maintained at 21-24° C., with testing conducted between the hours of 8:00-16:00. Mice were habituated to the testing environment for at least 2 days prior to baseline testing. All tests were performed by an experimenter who was blinded to experimental conditions, including genotypes and drug treatment. For multi-day experiments using STING agonists, mice were tested in the same room at approximately the same time each day. To measure mechanical sensitivity, mice were confined to individual chambers with non-transparent borders on an elevated mesh rack, preventing mice from visualizing or interacting with one another during the testing period. Mouse hindpaws were stimulated with a series of von Frey filaments with logarithmically increasing stiffness (0.02-2.56 g, Stoelting), which was applied perpendicularly to the central plantar surface. We determined the 50% paw withdrawal threshold using the up-down method. […] To test cold sensitivity, mice were again placed on an elevated metal mesh floor in isolated chambers, and a ˜20 μl acetone drop was applied to the central plantar surface of the mouse hindpaw using a pipette. […]

[2] = test system: IFN-α; experiment: IFN-α ELISA in serum and bone marrow lysate after i.p. STING agonist, LLC model; assay type: in vivo, mouse; conditions: single i.p. injection 20 mg/kg
Method: ELISA. Mouse high-sensitivity IFN-α ELISA kit (42115-1) and IFN-β ELISA kit (42410-1) were purchased from PBL Assay Science. Mouse CTX-I ELISA kit (AC-06F1) and mouse PINP ELISA kit (AC-33F1) were purchased from Immunodiagnostic Systems. ELISA was performed using culture medium, serum, and bone marrow lysates. Serum was obtained from whole blood that was collected from a submandibular vein via facial vein puncture, coagulated for 30 minutes at room temperature, followed by centrifugation (2,000 ×g for 10 min, 4° C.) and collection of the supernatant (serum). Bone marrow was homogenized in a lysis buffer containing protease inhibitors at 4° C. for 30 minutes. ELISA was conducted in accordance with the manufacturer's instructions. A standard curve was performed for each experiment.

[3] = test system: mice with intrafemoral Lewis lung carcinoma (LLC); experiment: LLC bone cancer pain model, systemic (i.p.) treatment, behavior tests and body weight; assay type: in vivo, mouse
Method: Bone cancer pain model. The murine cell lines LLC1, LL/2-Luc2 or E0771 were lightly digested using 0.05% trypsin, followed by centrifugation to remove poorly digested cell clusters. Cells were then resuspended in PBS at a concentration of 1×10^8 cells/ml. The inoculation was performed as previously described (Wang, K. et al. “PD-1 blockade inhibits osteoclast formation and murine bone cancer pain.” The Journal of clinical investigation, (2020); Wang, Z. et al. “Anti-PD-1 treatment impairs opioid antinociception in rodents and nonhuman primates.” Sci Transl Med 12 (2020)). Briefly, mice were anesthetized with 4% isoflurane and the left leg was shaved and the skin disinfected with 10% povidone-iodine and 75% ethanol. A superficial incision (0.5-1 cm) was made near the knee joint, exposing the patellar ligament. […] The syringe contents were slowly injected into the femoral cavity over a 2-minute interval. To prevent further leakage of tumor cells outside of the bone cavity, the outer injection site was sealed with silicone adhesive (Kwik-Sil, World Precision Instruments, US). Animals with surgery related movement dysfunction or with outside bone tumor injection were excluded from the study. Drug treatment. […] All other reagents were dissolved in sterile saline or PBS. For experiments utilizing rabbit anti-IFN-α or -β neutralizing antibodies, a polyclonal rabbit IgG antibody served as the control. […] Behavior tests. All the behavioral tests were conducted in a blinded manner and performed during between the hours of 9:00-16:00. Animals were habituated in a light and humidity controlled testing environment for at least 2 days prior to baseline testing. For Von Frey testing, mice were confined to individual 5×5 cm boxes placed on an elevated wire grid. A blinded experimenter stimulated their hindpaws using a series of von Frey filaments with logarithmically increasing stiffness (0.02-2.56 g, Stoelting). Each filament was applied perpendicularly to the central plantar surface. The 50% paw withdrawal threshold was determined using Dixon's up-down method.

[4] = test system: mice with intrafemoral Lewis lung carcinoma (LLC); experiment: Open field test in LLC bone cancer model; assay type: in vivo, mouse; conditions: d14 after tumor inoculation
Method: Behavior tests. All the behavioral tests were conducted in a blinded manner and performed during between the hours of 9:00-16:00. Animals were habituated in a light and humidity controlled testing environment for at least 2 days prior to baseline testing. For Von Frey testing, mice were confined to individual 5×5 cm boxes placed on an elevated wire grid. A blinded experimenter stimulated their hindpaws using a series of von Frey filaments with logarithmically increasing stiffness (0.02-2.56 g, Stoelting). Each filament was applied perpendicularly to the central plantar surface. The 50% paw withdrawal threshold was determined using Dixon's up-down method. In addition, we also measured paw withdrawal frequency to repeated stimulation (10 times, with ˜1-2 minutes between each stimulation) using a subthreshold 0.16 g von Frey filament, which is a more sensitive method to detect mechanical allodynia. […] To measure locomotor function, we performed open field testing in which mice were placed in the center of a 45×45 cm chamber and locomotor activity was recorded by an overhead webcam connected to a laptop computer, and animals' movements were automatically tracked for 30 minutes using ANY-Maze. The total distance traveled and mean speed during the 30-minute period were analyzed.

[5] = test system: LLC / LL/2-Luc2 / E0771 bone tumors; experiment: Local tumor burden (bioluminescence imaging, thigh circumference ratio); assay type: in vivo, mouse; conditions: day 17, LLC and E0771 models
Method: Culture of LLC cells and measurement of local tumor burden: Murine LLC cells were cultured in high glucose (4.5 g/L) Dulbecco's Modified Eagle Medium (DMEM; ThermoFisher) supplemented with 10% fetal bovine serum (Gibco, ThermoFisher) and 1% Antibiotic-Antimycotic solution containing penicillin, streptomycin, and Amphotericin B (ThermoFisher, 15240062). Cells were cultured in the presence of 5% CO2 at 37° C. Cells were passaged using a 0.05% trypsin digest once they achieved 70% confluency. Prior to in vivo injection, cells were harvested with 0.05% trypsin digestion followed by several washes in PBS. Cell counts were performed using a hemocytometer and diluted to achieve a suspension of 1×10^8 ml-1 cells in PBS. To determine whether i.t. STING agonists altered local tumor burden induced by femoral inoculation with LLC cells, mice were lightly anesthetized with isoflurane at the conclusion of the experiment, followed by measurement of the total circumference of the widest aspect of the thigh, which accurately reflects tumor burden. […]
In vivo bioluminescence imaging. […] The bioluminescence images were analyzed using Living Image software from PerkinElmer.
STING agonists suppress local bone cancer tumor burden and further metastasis. […] To quantify this, we measured the ratio of the maximum thigh circumference (ipsilateral/contralateral), which accurately reflects local tumor volume. […]

[6] = test system: tumor-bearing femora; experiment: In vivo X-ray radiography of bone destruction, LLC model; set-up: species or system mouse; conditions: twice i.p.
Source text: In vivo X-ray radiography. Osteolytic bone destruction was continuously evaluated by radiography using the MultiFocus by Faxitron system (Faxitron Bioptics LLC, Tucson, Ariz.). Radiographs of tumor-bearing femora were rated for bone destruction on a 0-5 score scale based on previous study: 0 for normal bone at baseline without tumor inoculation; 1 for one to three radiolucent lesions indicative of bone destruction compared to baseline; 2 for increased number of lesions (three to six lesions) and loss of medullary bone; 3 for loss of medullary bone and erosion of cortical bone; 4 for full-thickness unicortical bone loss; 5 for full-thickness bicortical bone loss and displaced skeletal fracture. All radiographic image quantifications were completed by an experimenter who was blinded to the experimental conditions.

What does the source list for `Cc1ccc2c(=O)c3cccc(CC(=O)O)c3oc2c1C` [DMXAA, 2-(5,6-dimethyl-9-oxo-9H-xanthen-4-yl)acetic acid]?
duration of increased paw withdrawal threshold [1]: up to 24 h; time for which the serum IFN-α increase was maintained [2]: up to 24 hours

What does the source list for `O=P(O)(O)C(O)(Cn1ccnc1)P(=O)(O)O` [ZA, Zoledronic acid]?
spontaneous and ongoing pain (flinching, guarding) ([3]; d14): but not ZA; withdrawal frequency to low-threshold stimulation (0.16 g Von Frey filament) ([3]; i.p. at d3 and d10): could reduce withdrawal frequency; cancer-induced cold allodynia ([3]; twice i.p.): reduced cold allodynia on d14; cancer-induced mechanical allodynia (paw withdrawal threshold) ([3]; twice i.p., DMXAA, ADU-S100 20 mg/kg, ZA 100 μg/kg): failed to reduce cancer-induced mechanical allodynia; open field distance and speed of movement [4]: not the ZA treatment group; ratio of maximum thigh circumference (ipsilateral/contralateral) [5]: not ZA treatment; bone destruction score [6]: reduced the bone destruction score at d11 and d15
